The values below come from article doi:10.1101/2020.01.21.912428.

These are yes or no findings as the source states them, for the method shown. Binding seen in cells or lysates may run through a third protein. Some binding calls cover weakened binding; strength is not graded here. Sequences can lack the tags named with a protein.

For the assay, the target named is T1, dTBCE-GFP expressed in Drosophila embryos (Drosophila melanogaster) (UniProt A1Z6J5).
T1 sequence: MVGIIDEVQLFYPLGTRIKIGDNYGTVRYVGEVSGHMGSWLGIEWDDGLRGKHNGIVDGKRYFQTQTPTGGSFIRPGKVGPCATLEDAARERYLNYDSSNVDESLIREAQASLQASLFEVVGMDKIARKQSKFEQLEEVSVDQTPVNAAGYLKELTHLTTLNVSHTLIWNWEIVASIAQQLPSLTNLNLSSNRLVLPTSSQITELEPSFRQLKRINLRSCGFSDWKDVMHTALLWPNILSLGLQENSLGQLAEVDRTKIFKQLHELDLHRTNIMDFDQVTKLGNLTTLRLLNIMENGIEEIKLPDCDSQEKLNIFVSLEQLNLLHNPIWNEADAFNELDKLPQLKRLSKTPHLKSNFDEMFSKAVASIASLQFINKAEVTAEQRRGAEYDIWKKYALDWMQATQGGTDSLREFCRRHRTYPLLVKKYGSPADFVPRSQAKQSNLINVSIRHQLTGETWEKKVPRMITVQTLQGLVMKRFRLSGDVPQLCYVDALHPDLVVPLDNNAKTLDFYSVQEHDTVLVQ
Kind of assay: co-IP.

As to Ran (from UniProt Q9VZ23 1-216), the binding result is given as “binds”.
